The target of this test is PCSK9 ProCat (31-449 of SEQ ID NO: 3) (human) (UniProt Q8NBP7). Description: domain binding ELISA (coated antibody captures the PCSK9 form; OD650). On the technique in general: ELISA stands for enzyme-linked immunosorbent assay.

The chains behind the UniProt entries cited, without tags or fusion partners. Where a name states a change or a piece, a line headed by the entry shows the natural chain unless it says otherwise.
UniProt Q8NBP7: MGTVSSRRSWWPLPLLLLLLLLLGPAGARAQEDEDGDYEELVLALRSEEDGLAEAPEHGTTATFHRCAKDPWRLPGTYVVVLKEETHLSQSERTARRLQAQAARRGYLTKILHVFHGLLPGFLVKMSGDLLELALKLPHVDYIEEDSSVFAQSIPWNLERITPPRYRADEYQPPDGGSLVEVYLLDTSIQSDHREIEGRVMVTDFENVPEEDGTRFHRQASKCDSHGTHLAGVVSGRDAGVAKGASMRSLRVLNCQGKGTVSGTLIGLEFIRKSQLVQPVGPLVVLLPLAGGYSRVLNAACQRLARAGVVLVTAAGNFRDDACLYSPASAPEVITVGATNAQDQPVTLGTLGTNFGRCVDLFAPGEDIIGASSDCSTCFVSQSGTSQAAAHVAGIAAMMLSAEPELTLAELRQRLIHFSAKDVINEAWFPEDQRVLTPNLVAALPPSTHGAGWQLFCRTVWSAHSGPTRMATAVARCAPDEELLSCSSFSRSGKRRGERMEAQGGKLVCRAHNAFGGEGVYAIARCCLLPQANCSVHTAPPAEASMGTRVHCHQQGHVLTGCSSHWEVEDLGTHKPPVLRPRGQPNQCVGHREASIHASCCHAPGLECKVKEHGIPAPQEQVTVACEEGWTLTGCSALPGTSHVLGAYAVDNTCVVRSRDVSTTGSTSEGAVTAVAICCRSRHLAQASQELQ

Numbering of substitutions follows the chain as printed. No constants are given. Whether binding was seen depends on the method and setting. Some binding calls cover weakened binding; strength is not graded here.

B1: 17C2.1 (antibody, V domains shown)
VH: QVQLVQSGAEVKKPGASVKVSCKASGYSFTSYGISWVRQAPGQGLEWMGWVSAYNGNTNYAQKFQGRVTMTTDTSTSTAYMELRSLRSDDTAVYYCARGYVMDVWGQGTTVTVSS
VL: QSALTQPASVFGSPGQSITISCTGTSSDVGAYNSVSWYQQHPGKAPKRMIYEVSNRPSGVSNRFSGSKSGNTASLTISGLQAEDEADYYCSSYTSTNMVFGGGTKLTVL
As to B1, the binding entry was “binds”.

B2: 26E10.1 (antibody, V domains shown)
VH: B1 VH with S28T, F29L, A53F, F64L, V68G, T74P, V101G
VL: B1 VL with F11S, A31G, R48L, S61F, S91N, N97S
B2: the binding result was “binds”.

The values are drawn from patent US20130072665A1.
